The results in this text go back to article PMC10163288.

Some of the results follow.

The chains are these.
B1: il2ra_site1_3nfp_normal_mot_ems_3hC_921_af2_000000143_0001_22_40_H_._HHH_b2_03092_0001_0000100006_0000001_0 (protein)
chain: SSSSSEEVREAQELSREVLKLIREGDREEAEELLKELERLAREANDPIAEKLVEQLERLLGSSSS
B2: il2ra_site1_1z92_normal_mot_HHH_b1_07944_000000047_0001_39_52_H_._HHH_b1_07427_0001_0000200021_0000001_0_af2pred_0001_af2pred (protein)
chain: SSSSSEIQEEIDRLWKEASHIPDREEVRKLIEEALELAEEAGDENVFRDLRRFLERLKRGSSSSS
B3: il2ra_site2_2erj_sap_21_mot_HHH_b1_01555_af2_000000123_0001_22_39_H_._HHH_b1_05014_af2_0001_0000100013_0000001_1_0001 (protein)
chain: SSSSDEIEELLEKAKELLEKGNPEEAEEVLRKAAHAAFENNDFEAFREIAELLREVAQLEASSSS
B4: il2ra_site1_3nfp_sap_15_mot_HHH_b2_07409_000000012_0001_1_20_H_._16934e337390fad51c35c10e6cd388ee_0001_1_0001_0000200030_0000001_0_0001 (protein)
chain: SSSSDVEEEVREILEQIEELLENGNPEEAAKLAEELYRLIAEAKDQEAADLLYEFLHRIISSSSS
B5: il2ra_site1_3nfp_normal_mot_HHH_b1_01080_af2_000000019_0001_3_16_H_._HHH_b2_03166_af2_0001_0000500008_0000001_1_af2pred_0001_af2pred_1 (protein)
chain: SSSSTKEAFEIAELAREIAEELGVDEKEIRLAAELALKLVARGVSEEEIEEILRELLEELSSSSS
B6: il2ra_site2_3nfp_normal_mot_HHH_b2_07498_000000057_0001_1_14_H_._HHH_b2_05183_0001_0000300021_0000001_0 (protein)
chain: SSSSDREEVEELLKEAEELLEEGNPEEAFQVVQKASELAAKLNDPELARAVLELYELLKRSSSSS
B7: il2ra_site2_3nfp_sap_25_mot_32bc48042d8ba3d1c0734e77886dd373_0001_1_000000143_0001_36_50_H_._HHH_b2_00933_0001_0001000014_0000001_0_0001_af2pred_0001_1_af2pred_ … (protein)
chain: SSSSSEEEEKIRKALEAVREAVERGDEELFRKLAIEAAEIIRENNDAEAFFILAELWRELGSSSS
B8: il2ra_site2_2erj_sap_26_mot_89dc1dc23437faef961419e82e151d9c_0001_000000098_0001_15_32_H_._HHH_b2_02643_af2_0001_0000300022_0000001_0_0001 (protein)
chain: SSSSDAIEELAEALIRTLERAGDPESAREVQELLEELEEKGDPRVEEELARLIWELMREHFSSSS
B9: il2ra_site2_3nfp_normal_mot_HHH_b1_00660_af2_000000090_0001_40_57_H_._HHH_b2_02632_0001_0000100016_0000001_0_af2pred_0001_af2pred_1_swapped (protein)
chain: SSSSSEEERVKRLLEEAEELKKEGDEEEVRKLLAEASLIAYEAGDFELFALISEFIERLLSSSSS
B10: il2ra_site1_3nfp_sap_12_mot_HHH_b2_07201_af2_000000232_0001_1_20_H_._HHH_b2_06321_0001_0000100001_0000001_1_0001_af2pred_0001_af2pred (protein)
chain: SRAELFAEAVEEIAELAGVPHVEVEVSNGEVRVTFEGDSKRAKIASRFVEELARLFGIKVEVEVR
B11: il2ra_site1_1z92_normal_mot_HHH_b2_02540_000000162_0001_1_16_H_._HHH_b1_06172_0001_0000600037_0000001_0 (protein)
chain: SSSSSKYEKSIRWALRLLEAAARTRNERLFEFVVEQIRLLVKQNNNEELEEELERLEREFRSSSS
B12: il2ra_site1_3nfp_normal_mot_HHH_b2_03135_af2_000000097_0001_42_55_H_._HHH_b2_04342_af2_0001_0000300016_0000001_0 (protein)
chain: SSSSDDWVRRLLEIDREIIELIREGDKEEARKLVEELEELAEELNDKIALRLAEQLKENLNSSSS
B13: il2ra_site1_2b5i_normal_mot_2cbe48e66a1f39b3fed734b245ab0a04_0001_000000015_0001_17_31_H_._HHH_b2_02186_0001_0000300010_0000001_0_af2pred_dldesign_0_af2pred (protein)
chain: SSSSSSNRARVEALLERARKLEDPFELSKVLSEALFVARQAKDEELIARVKAVWEELASSSSSSS
B14: il2ra_site2_2erj_sap_25_mot_HHH_b1_06138_000000259_0001_40_57_H_._HHH_b1_05292_0001_0000200002_0000001_0_0001 (protein)
chain: SSSSSEDLHEAYEIADRINELLQRGDPEEVEELLKELERLAERLKSPNLEEIVEWLRKLLDSSSS
B15: il2ra_site1_1z92_sap_14_mot_HHH_b1_00199_000000288_0001_44_57_H_._bd3138152b83fbdbd115440ed3e3a24f_0001_af2_0001_0000400048_0000001_0_0001 (protein)
chain: SVEEDIRAALKLGLSPENIVKALLRALAWVHKIPPEEAKELLEELLKELNTPVAEEVLEALKELK
B16: il2ra_site2_2erj_normal_mot_HHH_b1_08185_000000063_0001_41_55_H_._HHH_b1_04971_af2_0001_0000600015_0000001_0 (protein)
chain: SSSSSDSAEEALELAKEAYEKGDRSEVELILRYLELSLEDANDPRVEEAYELVEELLEELSSSSS
B17: il2ra_site1_3nfp_normal_mot_HHH_b1_03236_000000173_0001_17_33_H_._HHH_b2_01770_0001_0000100006_0000001_0_af2pred_0001_af2pred_swapped (protein)
chain: SSSSDYKELQELSREVEKLLKHGDKEEAEKVLEELEELAEKINSRIARLFVERLKRKLEELSSSS
B18: il2ra_site1_1z92_normal_mot_HHH_b1_05003_000000111_0001_1_20_H_._HHH_b1_04654_af2_0001_0000400010_0000001_0_af2pred_0001_af2pred_1 (protein)
chain: SSSSSEHERIRELIERVDELLRRGNDEEAEKLLEELKELAEETNSPVLKRLIEAAEELVELSSSS

This assay deals with il2ra, P01589. In words: yeast display titration.
In the case of B1, the “apparent Kd” value was “inactive: no binding seen”.
The result for B2 reads “inactive: no binding seen”; that for B3, “inactive: no binding seen”.
The result for B4 reads “inactive: no binding seen”; that for B5, “inactive: no binding seen”; that for B6, “inactive: no binding seen”.
The result for B7 reads “inactive: no binding seen”.
As to B8, the “apparent Kd” value is “inactive: no binding seen”.
B9: the “apparent Kd” value was “inactive: no binding seen”.
The result for B10 reads “inactive: no binding seen”; that for B11, “inactive: no binding seen”; that for B12, “inactive: no binding seen”.
The result for B13 reads “inactive: no binding seen”; that for B14, “inactive: no binding seen”; that for B15, “inactive: no binding seen”.
The result for B16 reads “inactive: no binding seen”; that for B17, “inactive: no binding seen”.
Turning to B18, the “apparent Kd” value is “inactive: no binding seen”.
